Measurements reported in PubChem BioAssay AID743454 (Peter MacCallum Cancer Centre, 2014)
In all, the deposit lists about 18,000 reagents; below is a random part of them. Over the whole deposit, 450 (2.5%) got an active call. 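Single biological run; no consistent viability z cut-off exists, so the class columns, not z-scores, define the calls.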

Purpose: 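Knock-downs lowering viability or raising caspase 3/7 activity in vorinostat-treated resistant cells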 (primary screen)
Cells: human HCT116-VR colon cancer cells, selected for vorinostat resistance
Reagents: siRNA pool against human genes, 40 nM siRNA pool
Timing: vorinostat for 24 h, read-out about 72 h after transfection
Challenge: vorinostat at 2.5 µM final
Measurement: 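Two measures, CellTiter-Fluor viability and luminescent caspase 3/7 activity, each as fold change against same-plate mock wells, mean of duplicates, then screen-wide robust z-score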
Scale: viability robust z-score: higher = more viable cells than screen typical; caspase robust z-score: higher = more caspase 3/7 activity than screen typical
Active means: 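a knock-down is a hit when classed RV1 or RV2 for lowered viability, or CA1 or CA2 for caspase activation; those lethal without drug were dropped; hits were retested singly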

After knock-down of LGALS9C (galectin 9C), the screen gave viability hit class no change; caspase hit class no change; viability robust z-score -1.12; caspase robust z-score -0.94; inactive.
CT47A5 (cancer/testis antigen family 47 member A5) gave viability hit class no change; caspase hit class no change; viability robust z-score -0.2; caspase robust z-score 2.44; inactive.
Depletion of ABCC6 (ATP binding cassette subfamily C member 6) resulted in: viability hit class no change; caspase hit class no change; viability robust z-score 0.56; caspase robust z-score 0.98; inactive.
After knock-down of ANXA2R (annexin A2 receptor), the screen gave viability hit class no change; caspase hit class no change; viability robust z-score -0.59; caspase robust z-score -0.98; inactive.
For MRPS28 (mitochondrial ribosomal protein S28), the entry reads viability hit class no change; caspase hit class no change; viability robust z-score -0.03; caspase robust z-score 2.48; inactive.
With knock-down of BST1 (bone marrow stromal cell antigen 1) the results were viability hit class no change; caspase hit class no change; viability robust z-score -0.88; caspase robust z-score 1.98; inactive.
Against TNFAIP8 (TNF alpha induced protein 8) the deposit lists viability hit class no change; caspase hit class no change; viability robust z-score 0; caspase robust z-score -0.4; inactive.
GYPA (glycophorin A (MNS blood group)) gave viability hit class no change; caspase hit class no change; viability robust z-score 0.09; caspase robust z-score -0.7; inactive.
ACOX1 (acyl-CoA oxidase 1) scored viability hit class no change; caspase hit class no change; viability robust z-score 1.51; caspase robust z-score -0.36; inactive.
Depletion of GORASP1 (golgi reassembly stacking protein 1) resulted in: viability hit class no change; caspase hit class no change; viability robust z-score -0.29; caspase robust z-score 0.26; inactive.
For BFAR (bifunctional apoptosis regulator), the values are viability hit class no change; caspase hit class no change; viability robust z-score 0.05; caspase robust z-score -0.56; inactive.
For SYT9 (synaptotagmin 9), the values are viability hit class no change; caspase hit class no change; viability robust z-score -0.78; caspase robust z-score -0.43; inactive.
Knock-down of GIPC3 (GIPC PDZ domain containing family member 3) resulted in: viability hit class no change; caspase hit class no change; viability robust z-score 0.84; caspase robust z-score -1.04; inactive.
DES (desmin) scored viability hit class no change; caspase hit class no change; viability robust z-score -2.06; caspase robust z-score 4.15; inactive.

Entries above whose gene name starts with G or g (3):
GYPA (glycophorin A (MNS blood group)) — viability hit class: no change; caspase hit class: no change; viability robust z-score: 0.09; caspase robust z-score: -0.7; Call: inactive
GORASP1 (golgi reassembly stacking protein 1) — viability hit class: no change; caspase hit class: no change; viability robust z-score: -0.29; caspase robust z-score: 0.26; Call: inactive
GIPC3 (GIPC PDZ domain containing family member 3) — viability hit class: no change; caspase hit class: no change; viability robust z-score: 0.84; caspase robust z-score: -1.04; Call: inactive
